Results on 79 compounds are retold here after PMC12040169 (PLOS Biology, 2025).

SMILES strings stand for the structures. Some of the results follow.

The assay deals with T1, CTL2-GFP (C. trachomatis L2/434/Bu, GFP-expressing).
T1 construct: L2/434/Bu, GFP-expressing
Also on record: species or system HeLa; Intracellular C. trachomatis growth in HeLa cells, bulk GFP fluorescence relative to DMSO. Conditions: bulk GFP, single well; 28.5 h, 10 µM; inhibitor.
Consider `Cc1ccc(OCc2nnc(SCc3cccc(C#N)c3)n2N)cc1C` [CBK267420], for which the “% of control remaining” value came out at 138.373%.

With `Cc1nn(C)c(C)c1NC(=O)CSc1nnc(-c2cccc(Br)c2)n1-c1ccccc1` [CBK267430], the “% of control remaining” value amounted to 107.656%.

`O=C(Nc1ccc(Cl)cc1)N1CCCC(CO)C1` (stereo not shown) [CBK156047]: the “% of control remaining” value was determined as 112.829%.

`Cn1c(SCCC(=O)O)nnc1-c1ccc2c(c1)OCO2` [CBK269842]: the “% of control remaining” value was found to be 149.094%.

Turning to `COc1cc(OC)cc(C(=O)Nc2ccc(S(=O)(=O)Nc3nccs3)cc2)c1` [CBK261300], the “% of control remaining” value amounted to 100.953%.

For the compound `N#CCCCN1CCC(Oc2nccnc2OCc2ccccc2C(F)(F)F)CC1` [CBK153636], the “% of control remaining” value is given as 138.197%.

As to `COc1ccc(CC(=O)N2C3CCC2CC(O)(c2ccco2)C3)cc1` (stereo not shown) [CBK284137], the “% of control remaining” value stood at 104.432%.

Take `O=C(CSc1nc(O)c2c(-c3ccccc3)csc2n1)NCCc1ccccc1` [CBK268077]: the “% of control remaining” value is listed as 116.144%.

As to `CCOc1ccc(CNCCc2ccc(S(N)(=O)=O)cc2)cc1` [CBK268090C], the “% of control remaining” value came to 126.695%.

On to `COCCN1CCOC2(CCN(C(=O)c3ccc(C)cc3)CC2)C1c1ccccc1OC` (stereo not shown) [CBK112657C], for which the “% of control remaining” value is 110.478%.

Take `CCN(CC)C(=O)N1CCC2(CC1)CC(=O)c1ccccc1O2` [CBK283495]: the “% of control remaining” value is 104.342%.

Take `COCCNC(=O)c1ccc(-c2ccccc2CO)nc1N1CCOCC1` [CBK076559]: the “% of control remaining” value was determined as 119.747%.

Take `Cc1cccc(Cn2cnc(NC(=O)COc3ccc([N+](=O)[O-])c(C)c3)n2)c1` [CBK268177]: the “% of control remaining” value was found to be 113.078%.

Consider `O=C(O)CN(Cc1ccccc1)Cc1ccccc1` [CBK260903], for which the “% of control remaining” value is 114.489%.

Consider `CN1CCN(C(=O)Cn2c(-c3cccs3)cc3cccnc32)CC1` [CBK282558], for which the “% of control remaining” value came to 115.506%.

As to `O=C(CC1(O)C(=O)N(CN2CCOCC2)c2ccccc21)c1ccc2c(c1)OCO2` (stereo not shown) [CBK269639], the “% of control remaining” value worked out at 126.264%.

As to `O=C(c1ccc(OC(F)(F)F)cc1)N1CCN(c2nnnn2-c2ccccc2)CC1` [CBK296622], the “% of control remaining” value worked out at 150.325%.

Take `COc1ccc(S(=O)(=O)NCCO)cc1-c1nnc2c3ccccc3c(C)nn12` [CBK266933]: the “% of control remaining” value stood at 149.706%.

As for `COCCNc1nc(-c2cccc(Cl)c2Cl)ccc1C(=O)N(C)CCN(C)C` [CBK105922], the “% of control remaining” value was found to be 108.561%.

On to `Cn1c(=O)n(CC(=O)N2CCc3ccccc32)c2cccnc21` [CBK283792], for which the “% of control remaining” value is recorded as 109.898%.

Turning to `CN(C)CCN(C)c1cncc(-c2ccc(Cl)cc2)n1` [CBK065724], the “% of control remaining” value is reported as 92.9322%.

For the compound `Cc1cc2c(=O)n(Cc3ccco3)c(SCc3nc4ccccc4[nH]3)nc2s1` [CBK268202], the “% of control remaining” value is 125.58%.

`CC(=O)OCc1ccc(CN2CCCCCC2c2cc(C)on2)o1` (stereo not shown) [CBK283004]: the “% of control remaining” value is reported as 122.872%.

As for `Cc1ccc(S(=O)(=O)NCc2c(-c3ccccc3)c3cc(Br)ccc3[nH]c2=O)cc1` [CBK265231], the “% of control remaining” value worked out at 132.999%.

As for `CN(C)CCN(Cc1ccccc1)C(=O)NCc1cccnc1` [CBK145048], the “% of control remaining” value is on record as 115.422%.

Turning to `CNC(=O)C1(Cc2ccccc2-c2ccccc2)CCN(C(=O)Cc2ccccc2)CC1` [CBK285695], the “% of control remaining” value was determined as 110.286%.

Take `CC(C)=NNC(=N)Nc1ccccc1` [CBK021452]: the “% of control remaining” value came to 123.187%.

On to `COc1ccc(-c2cc(N3CCN(CCN4CCCC4)CC3)ncn2)cc1OC` [CBK091173], for which the “% of control remaining” value came to 166.021%.

With `COCn1nccc1S(=O)(=O)NCCc1cn2ccccc2n1` [CBK304060], the “% of control remaining” value was determined as 130.909%.

For the compound `CCCn1c(CN2CCOCC2)nc2ccccc21` [CBK287784], the “% of control remaining” value was 95.3916%.

As for `Cn1c(N2CC[C@H](O)C2)nc2cc(C(=O)NCc3ccsc3)ccc21` [CBK307471], the “% of control remaining” value came out at 148.051%.

As to `O=C(O)c1ccc2c(c1)C(=O)N(c1ccc(-c3nc(-c4ccccc4)c4ccccc4n3)cc1)C2=O` [CBK263311], the “% of control remaining” value is reported as 114.564%.

In the case of `CCOc1ccc(C(N)CC(=O)O)c2ccccc12` (stereo not shown) [CBK287120], the “% of control remaining” value was 127.508%.

As to `Cc1ccc(CN(Cc2ncc[nH]2)C2CC(C)(C)NC(C)(C)C2)o1` [CBK283191], the “% of control remaining” value is reported as 113.266%.

With `CC(C(=O)NC(c1ccncc1)c1cccs1)n1ccnc1` (stereo not shown) [CBK281438], the “% of control remaining” value is given as 146.218%.

Turning to `O=C1CC(c2ccc(Br)cc2)Nc2ccc3ccccc3c21` (stereo not shown) [CBK094798], the “% of control remaining” value was determined as 119.035%.

In the case of `COCCNc1nccnc1-c1cccnc1` [CBK037376], the “% of control remaining” value worked out at 167.737%.

On to `CC(/C(=N/O)c1ccccc1)C(O)c1ccccn1` (stereo not shown) [CBK022993], for which the “% of control remaining” value worked out at 102.551%.

On to `COc1ccc2c(c1)CCCN2C(=O)Cn1nc(C)cc1C` [CBK282042], for which the “% of control remaining” value was determined as 114.055%.

For `COc1ccc([C@@]23CCC(NC(=O)Nc4ccccc4OC(F)F)C[C@@H]2N(C)CC3)cc1OC` (stereo partly shown) [CBK047547T], the “% of control remaining” value amounted to 100.771%.

In the case of `CCCc1csc(C2CN3CCCC3CO2)n1` (stereo not shown) [CBK304799], the “% of control remaining” value worked out at 107.034%.

Regarding `CC1(Cc2ccn[nH]2)SCCCS1` [CBK019308C], the “% of control remaining” value was 87.5214%.

As for `CCC1(CC)OC(NC[C@@H](C)c2ccccc2)=NC1=O` [CBK123983], the “% of control remaining” value is listed as 70.8299%.

As for `COCC(=O)N1CCC(Oc2ccc3ncccc3c2)(C(=O)O)CC1` [CBK307340], the “% of control remaining” value was 130.106%.

In the case of `CCN(CC)C(=O)c1ccc(-c2ccc(NC(C)=O)cc2)nc1` [CBK158850], the “% of control remaining” value is 104.708%.

With `CC(C)(C)c1ccc(-c2cnc3ncccc3c2O)cc1` [CBK089628], the “% of control remaining” value was 116.208%.

Consider `CCCCCOc1ccc(Nc2cc(-c3ccc(N(C)C)cc3)ncn2)cc1` [CBK090889], for which the “% of control remaining” value was determined as 73.0861%.

With `Cc1noc(C)c1S(=O)(=O)Nc1c(C(=O)O)sc2ncccc12` [CBK049988], the “% of control remaining” value is reported as 108.896%.

As to `CS(=O)(=O)N1CC2(CCN(Cc3ccc(Cl)c(Cl)c3)CC2)c2ccccc21` [CBK084043], the “% of control remaining” value is 99.8249%.

In the case of `COc1ccc(CNC(=O)N2CCCCC2CO)cc1OC` (stereo not shown) [CBK155981], the “% of control remaining” value came out at 109.599%.

`Nc1cccc(S(=O)(=O)N2CCC(C(=O)O)CC2)c1` [CBK286541]: the “% of control remaining” value came to 114.221%.

As to `Cc1ccc(S(=O)(=O)N(CC(O)Cn2c3ccc(Cl)cc3c3cc(Cl)ccc32)c2ccccc2)cc1` (stereo not shown) [CBK263353], the “% of control remaining” value was found to be 118.422%.

For `COc1ccc(CCNC(=O)N2CCCC(CO)C2)cc1` (stereo not shown) [CBK156059], the “% of control remaining” value was 107.469%.

In the case of `Cc1ccc2nc(Cn3cc(-c4cnn(Cc5ccccc5)c4)cn3)cn2c1` [CBK297125], the “% of control remaining” value stood at 131.374%.

With `CC1Cc2cc(C(O)CN3CCC(O)(c4ccccc4F)CC3)ccc2N1S(C)(=O)=O` (stereo not shown) [CBK283091], the “% of control remaining” value was determined as 136.529%.

For `O=C(NCc1ccccn1)C(=O)N/N=C/c1ccccc1[N+](=O)[O-]` [CBK262204], the “% of control remaining” value is 122.592%.

Consider `CC(C)CC(NC(=O)c1ccco1)c1nc2cccnc2n1C` (stereo not shown) [CBK283827], for which the “% of control remaining” value stood at 125.54%.

With `Cc1cn2c3c(=O)n(C)c(=O)n(C)c3nc2n1CCN1CCOCC1` [CBK270139], the “% of control remaining” value is 139.511%.

In the case of `CC(=O)N1CCc2cc(NCc3nc4ccccc4n3C(C)c3ccccc3)ccc21` (stereo not shown) [CBK285621], the “% of control remaining” value is reported as 126.473%.

With `O=C(Nc1ccc(Br)cc1C(=O)c1ccccc1)c1ccc([N+](=O)[O-])s1` [CBK066838], the “% of control remaining” value turned out to be 92.1895%.

In the case of `O=C(Nc1sc2c(c1C(=O)O)CCCC2)c1cc2ccccc2o1` [CBK264551], the “% of control remaining” value is on record as 125.963%.

With `CCn1cc(C(=O)N2CCCC2c2nc3ccccc3[nH]2)cn1` (stereo not shown) [CBK283776], the “% of control remaining” value is given as 130.036%.

As to `CC(C)NC(=O)[C@@H](C)C1CC[C@@]2(C)CC[C@H](NC(=O)c3cncnc3)[C@@H](C)[C@@H]2[C@H]1O` (stereo partly shown) [CBK289454], the “% of control remaining” value is 108.086%.

In the case of `COc1ccc(Cn2c(=O)[nH]n(-c3ccccc3)c2=O)cc1F` [CBK122772], the “% of control remaining” value stood at 110.418%.

Turning to `Cc1ccc(OCc2nnc(SCC(=O)c3cccc([N+](=O)[O-])c3)n2C)cc1` [CBK268580], the “% of control remaining” value is recorded as 139.5%.

On to `O=C(Nc1cccc2cccnc12)c1cccc2ccccc12` [CBK261473], for which the “% of control remaining” value is 94.454%.

For the compound `FC(F)(F)c1cccc(OCc2ccc(-c3ccccc3)cc2)n1` [CBK115836], the “% of control remaining” value worked out at 156.839%.

Take `COc1ccc(OC)c(-c2cc(C(=O)O)c(C)o2)c1` [CBK049343]: the “% of control remaining” value came to 114.034%.

With `COc1ccc2[nH]cc(CCNC(=O)N(C)C3CCN(C)C3)c2c1` (stereo not shown) [CBK156004], the “% of control remaining” value is 90.3694%.

Turning to `CC1(C)OCC2(CCN(C(C)(C)C)CC2)O1` [CBK038298], the “% of control remaining” value came out at 121.621%.

Consider `CCC(Oc1cccc(Cl)c1)C(=O)NN1CCN(C)CC1` (stereo not shown) [CBK268135], for which the “% of control remaining” value is given as 98.1552%.

Take `COc1ccc(NS(=O)(=O)c2cc(C(=O)O)c(Cl)cc2Cl)cc1` [CBK095077]: the “% of control remaining” value came out at 100%.

For the compound `N#CCCN(C1CCCCC1)S(=O)(=O)c1ccc(-c2ccc([N+](=O)[O-])cc2)cc1` [CBK261382], the “% of control remaining” value is given as 101.519%.

Turning to `O=C(O)c1cccc(CSc2nc3ccccc3o2)c1` [CBK270193], the “% of control remaining” value was found to be 112.156%.

With `C=CCN1C(=O)CC2(C1=O)C(=O)N(Cc1ccc(S(=O)(=O)N(CC)CC)cc1)c1ccc(Cl)cc12` (stereo not shown) [CBK075412], the “% of control remaining” value was found to be 97.4584%.

Turning to `Cc1cc(C(=O)CSc2nnc(C3CC3)[nH]2)c(C)n1-c1cccc(C(F)(F)F)c1` [CBK295310], the “% of control remaining” value stood at 117.35%.

On to `CC(C)c1ccc(C(C)NC(=O)c2cccn(CC(=O)NC3CCCC3)c2=O)cc1` (stereo not shown) [CBK286018], for which the “% of control remaining” value was determined as 117.213%.

As to `COc1ccc2[nH]cc(CC(=O)Nc3nc4c(OC)cccc4s3)c2c1` [CBK149279], the “% of control remaining” value came to 123.649%.

Take `CCOC(=O)C(Cc1ccccc1)C(=O)Nc1ccc(Cl)cc1` (stereo not shown) [CBK261463]: the “% of control remaining” value turned out to be 108.396%.
